These are yes or no findings as the source states them, for the method shown. Binding seen in cells or lysates may run through a third protein. Some binding calls cover weakened binding; strength is not graded here. Where a sequence is shown, tags or fusion partners need not be part of it.
Target: T1, ODF4-EGFP (outer dense fiber 4 fused to EGFP) (mouse) (UniProt Q8VI88)
T1 sequence: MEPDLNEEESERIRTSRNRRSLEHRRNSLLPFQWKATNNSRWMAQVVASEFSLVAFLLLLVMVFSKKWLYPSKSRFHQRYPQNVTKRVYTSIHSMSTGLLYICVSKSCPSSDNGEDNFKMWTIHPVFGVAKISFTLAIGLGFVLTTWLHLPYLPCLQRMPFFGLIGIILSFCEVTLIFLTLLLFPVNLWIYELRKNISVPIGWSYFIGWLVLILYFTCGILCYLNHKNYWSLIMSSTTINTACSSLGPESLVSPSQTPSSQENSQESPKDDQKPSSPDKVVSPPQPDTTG
Assay: co-IP; IP with mouse monoclonal anti-GFP antibody (B2) on Dynabeads Protein G from RIPA buffer extracts of Tg(Odf4-Egfp)Odf4+/+ spermatozoa; western blotting with anti-AK1 and anti-AK2; Odf4-/- sperm extract as negative control

binding: binds
B1: Adenylate kinase 1 (AK1) (enzyme, UniProt Q9R0Y5 1-194)
chain: MEEKLKKAKIIFVVGGPGSGKGTQCEKIVQKYGYTHLSTGDLLRAEVSSGSERGKKLSAIMEKGELVPLDTVLDMLRDAMLAKVDSSNGFLIDGYPREVKQGEEFEQKIGQPTLLLYVDAGAETMTQRLLKRGETSGRVDDNEETIKKRLETYYNATEPVISFYDKRGIVRKVNAEGTVDTVFSEVCTYLDSLK

Reference: paper PMC9941515
